# Results taken from PubChem BioAssay AID445 (National Center for Advancing Translational Sciences (NCATS), 2006).
# The list shows a part of the results. Further columns of the screen follow, without active or inactive calls. Compounds called inactive in the main read-out are mostly missing here. Potencies come from curve fits of mixed quality, noted in brackets.
# Assay: IkB Signaling
# Settings: ABC-DLBCL IkBa-CBG/CBR dual luciferase ratio (green luciferase fused to IkBa over red control in OCI-Ly3 lymphoma cells), 4 h
# Procedure, shortened: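 Luminescence ratio of IκBα-fused green versus native red beetle luciferase in OCI-Ly3 cells, 4 h post-doxycycline with compound; red signal alone, scaled from basal (0%) to zero light (-100%), flagged nonspecific or cytotoxic effects.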
# [1] = measured here: control luc red channel unless noted
smiles,measurement,setting,value
CCOc1ccccc1NC(=O)CN1C(=O)COc2ccc(S(=O)(=O)N3CCOCC3)cc21,AC50,[1],"12.6 µM [falling, partial curve]"
CCOc1ccc(NCc2cccn2-c2nnc(N3CCC(C(=O)NCC(C)c4ccccc4)CC3)s2)cc1 (stereo not drawn),AC50,[1],"15.8 µM [falling, partial curve]"
COc1ccc(C2c3c(-c4ccccc4O)n[nH]c3C(=O)N2CCc2ccc(OC)c(OC)c2)cc1 (stereo not drawn),AC50,[1],"12.6 µM [falling, partial curve]"
CCN(c1ccccc1)S(=O)(=O)c1ccc(NC(=O)c2nc(SC)ncc2Cl)cc1,AC50,[1],"10 µM [falling, partial curve]"
CCN(CC)c1ccc(NC(=O)C2CCN(c3nnc(-n4cccc4)s3)CC2)c(C)c1,AC50,[1],"31.6 µM [falling, partial curve]"
O=c1c2sc3ccccc3c2n(Cc2cccc(F)c2)c(=O)n1Cc1ccccc1,AC50,[1],"15.8 µM [falling, single point]"
O=C(NCc1cccs1)c1ccc2c(=O)n3nc(Nc4ccccc4)sc3nc2c1,AC50,[1],"39.8 µM [rising, single point] [measured here: IkB-luc green channel]"
Cc1ccc2c(c1Br)C(O)(CC(=O)c1ccc(F)cc1)C(=O)N2 (stereo not drawn),AC50,[1],"3.16 µM [falling, partial curve]"
COc1ccccc1N(C(=O)NCc1ccccc1)C1=NCC(C)S1 (stereo not drawn),AC50,[1],"31.6 µM [falling, single point]"
CCOC(=O)c1ccc(N2C(=O)c3[nH]nc(-c4ccccc4)c3C2c2ccc(CC)cc2)cc1 (stereo not drawn),AC50,[1],"15.8 µM [falling, partial curve]"
Cc1c(Cl)cccc1NC(=O)CC1Oc2ccccc2NC1=O (stereo not drawn),AC50,[1],"25.1 µM [falling, single point]"
O=C(c1ccc2c(c1)N(Cc1ccccc1F)C(=O)c1ccccc1S2(=O)=O)N1CCC(Cc2ccccc2)CC1,AC50,[1],"10 µM [falling, partial curve]"
COc1ccc(NC(=O)CSc2nc3ccccc3c(=O)n2CCC(=O)N2CCCCC2)cc1,AC50,[1],"10 µM [falling, partial curve]"
CC(C)c1ccc(Cn2c(COc3ccccc3)nc3ccccc32)cc1,AC50,[1],"20 µM [falling, partial curve]"
CCn1nc(C)c2c(-c3ccccc3)cc(=O)n(C(C)C(=O)NCCC(C)C)c21 (stereo not drawn),AC50,[1],"39.8 µM [falling, single point]"
CC(=O)Nc1ccc(NC(=O)CCc2nc3cccnc3n2Cc2cccs2)cc1,AC50,[1],"39.8 µM [falling, partial curve, poor fit]"
CC1CCN(Cc2c(O)ccc3c(=O)c(Oc4ccccc4Cl)c(C(F)(F)F)oc23)CC1,AC50,[1],"39.8 µM [falling, single point]"
CSc1nsc(SC)c1NC(=O)OC1CCCCC1,AC50,[1],"20 µM [falling, partial curve]"
COc1ccc(NC(=O)CC2C(=O)N(c3cccc(OC)c3)C(=O)N2CCc2cccs2)cc1 (stereo not drawn),AC50,[1],"39.8 µM [falling, single point]"
Cc1ccc(NC(=O)Cn2c(=O)n(Cc3nc(-c4ccccc4)no3)c(=O)c3cc4c(cc32)OCO4)cc1F,AC50,[1],"15.8 µM [falling, single point]"
O=C(Nc1cc(-c2nc3ccccc3o2)ccc1Cl)c1sc2c([N+](=O)[O-])cccc2c1Cl,AC50,[1],"1.58 µM [rising, partial curve, poor fit]"
CCOc1ccc(CN2CCc3nc(N4CCN(c5ccccc5OC)CC4)ncc3C2)cc1OC,AC50,[1],"0.0316 µM [rising, full curve, poor fit]"
CC(C)(C)OC(=O)N1CCC(c2c(C(=O)NCc3cccc(Cl)c3)cnn2-c2ccc(F)cc2)CC1,AC50,[1],"7.94 µM [falling, partial curve]"
COc1ccc(-n2c(-c3ccc(C)cc3)cc3c2CC(C)(C)CC3=O)cc1Cl,AC50,[1],"15.8 µM [falling, partial curve]"
COc1ccc(-c2nc(SCC(=O)NC3CCCC3)c(-c3ccc(F)cc3)[nH]2)cc1,AC50,[1],"25.1 µM [falling, partial curve]"
COc1ccccc1Cn1c(CNS(=O)(=O)c2ccc(C(C)C)cc2)nc2cccnc21,AC50,[1],"39.8 µM [falling, single point]"
O=C(c1ccc2c(c1)N(Cc1ccc(F)cc1)C(=O)c1ccccc1S2(=O)=O)N1CCCC1,AC50,[1],"10 µM [falling, partial curve]"
COc1ccc(CNC(=O)c2nc(SCc3ccccc3F)ncc2Cl)cc1,AC50,[1],"10 µM [falling, partial curve]"
CC(NC(=O)c1ccc2c(c1)CCN2S(=O)(=O)c1ccccc1)c1ccccc1 (stereo not drawn),AC50,[1],"15.8 µM [falling, single point]"
Fc1ccccc1Cc1cn2cc(-c3ccc(Cl)cc3)nc2s1,AC50,[1],"0.316 µM [falling, full curve]"
O=c1c2ccccc2sn1-c1cc(S(=O)(=O)N2CCOCC2)ccc1N1CCOCC1,AC50,[1],"25.1 µM [falling, partial curve]"
O=C(c1nn(Cc2ccccc2)c(=O)c2ccccc12)N1CCN(c2ccccn2)CC1,AC50,[1],"12.6 µM [falling, partial curve]"
COc1ccc(-n2c(C)c(C(C)=O)c3cc(OC(=O)COc4ccccc4)ccc32)cc1,AC50,[1],"15.8 µM [falling, partial curve]"
Cc1cc(C)cc(OCC(=O)N(Cc2cccs2)c2ccc(Cl)cc2)c1,AC50,[1],"39.8 µM [falling, single point]"
Cc1cc(-c2ccc(C)c(S(=O)(=O)NCc3cccc(Br)c3)c2)on1,AC50,[1],"31.6 µM [falling, partial curve]"
CC(C)CCNc1nc2c(c(=O)n(Cc3cccc(F)c3)c(=O)n2C)n1C,AC50,[1],"20 µM [falling, partial curve]"
CCCCCn1c(CCNC(=O)c2ccc(F)cc2)nc2ccccc21,AC50,[1],"25.1 µM [falling, partial curve]"
Fc1ccc(-c2nn(-c3ccccc3Cl)c3c2cnc2ccccc23)cc1,AC50,[1],"39.8 µM [falling, single point]"
Cc1ccc2onc(CC(=O)N3CCN(c4cc(Cl)ccc4C)CC3)c2c1,AC50,[1],"31.6 µM [falling, single point]"
Cc1ccc(CNC(=O)Cc2c(C)c3c(cc(C)c4c(C)coc43)oc2=O)cc1,AC50,[1],"3.16 µM [rising, single point]"
CCCc1nc2sc3ccccc3c(=O)c2c(=O)n1Cc1ccco1,AC50,[1],"1 µM [falling, partial curve]"
COc1cccc(C(=O)c2c(N)c(-c3nc(-c4ccccc4)cs3)c3ccccn23)c1,AC50,[1],"3.16 µM [falling, partial curve]"
Cc1cccc(-n2c(=O)c3c(c4cc(C)ccc4n3C)n(CC(=O)N3CCCC3)c2=O)c1,AC50,[1],"31.6 µM [falling, single point]"
O=C(CN1C(=O)COc2ccccc21)NCCc1ccc(Cl)cc1,AC50,[1],"39.8 µM [falling, single point]"
Cc1ccc(CNC(=O)c2ccc(NC(=O)N3CCSc4ncccc43)cc2)cc1,AC50,[1],"10 µM [falling, partial curve]"
Cc1cccc(C)c1OCCCn1c(CCNC(=O)C2CCCCC2)nc2ccccc21,AC50,[1],"25.1 µM [falling, partial curve]"
CCOc1ccccc1NC(=O)c1nc(SC(C)C)ncc1Cl,AC50,[1],"39.8 µM [falling, single point]"
CCc1ccc(NC(=O)CN2C(=O)C(c3ccc(Cl)cc3)=NC23CCCCC3)cc1,AC50,[1],"12.6 µM [falling, partial curve]"
O=C1/C(=C/c2ccccc2)[C@@H](NC2CCCCC2)c2ccccc21,AC50,[1],"3.98 µM [falling, partial curve]"
Cc1cccc(/C=C(\C#N)c2nc3ccccc3c(=O)[nH]2)c1,AC50,[1],"10 µM [falling, partial curve]"
COc1ccc(N2CCN(CCCNC(=O)c3cc(Nc4ccc(OC)cc4OC)nc4ccccc34)CC2)cc1,AC50,[1],"20 µM [falling, partial curve]"
O=C(CCS(=O)(=O)c1ccccc1)N(Cc1cccnc1)c1nc2ccc(Cl)cc2s1,AC50,[1],"12.6 µM [falling, partial curve, poor fit]"
COC(=O)C1=C(C)N(c2ccc(Cl)c(Cl)c2)C(=O)C1,AC50,[1],"1.58 µM [falling, full curve]"
CCCN1Cc2cccc(C(=O)Nc3ccc(C(C)=O)cc3)c2C1=O,AC50,[1],"0.794 µM [rising, full curve]"
Cc1cc(C(=O)NCc2cccs2)c(C)o1,AC50,measured here: IkB-luc green channel,"6.31 µM [rising, single point]"
same,AC50,measured here: control luc red channel,"31.6 µM [falling, single point]"
CC(C)c1ccc(C2CC(=O)N3CN(Cc4ccco4)CSC3=C2C#N)cc1 (stereo not drawn),AC50,[1],"10 µM [falling, partial curve]"
Cc1cc(C(=O)N2CCN(c3cccc(C)c3C)CC2)c2c(C)nn(-c3ccccc3)c2n1,AC50,[1],"10 µM [falling, partial curve]"
CCOC(=O)c1sc(NC(=O)C2c3ccccc3Oc3ccccc32)c(C#N)c1C,AC50,[1],"3.98 µM [falling, full curve]"
Cc1ccc(C(=O)c2cn(CC(=O)NCc3ccccc3Cl)c3nc(C)ccc3c2=O)cc1,AC50,[1],"1 µM [falling, full curve, poor fit]"
CCCC(=O)NC(C)c1nc2ccccc2n1Cc1ccccc1 (stereo not drawn),AC50,[1],"31.6 µM [falling, single point]"
O=C(O)CCCCCNC(=O)c1cccc(Br)c1,AC50,[1],"3.16 µM [falling, full curve]"
Cc1c(C(=O)N(C)C)sc2c1c(=O)n(-c1ccc(Cl)cc1)c(=O)n2Cc1ccccc1F,AC50,[1],"6.31 µM [rising, single point]"

# Exported bar-delimited: part of the list above.
smiles | measurement | setting | value
CC(C)CCNc1nc2c(c(=O)n(Cc3cccc(F)c3)c(=O)n2C)n1C | AC50 | [1] | 20 µM [falling, partial curve]
CCCCCn1c(CCNC(=O)c2ccc(F)cc2)nc2ccccc21 | AC50 | [1] | 25.1 µM [falling, partial curve]
Fc1ccc(-c2nn(-c3ccccc3Cl)c3c2cnc2ccccc23)cc1 | AC50 | [1] | 39.8 µM [falling, single point]
Cc1ccc2onc(CC(=O)N3CCN(c4cc(Cl)ccc4C)CC3)c2c1 | AC50 | [1] | 31.6 µM [falling, single point]
Cc1ccc(CNC(=O)Cc2c(C)c3c(cc(C)c4c(C)coc43)oc2=O)cc1 | AC50 | [1] | 3.16 µM [rising, single point]
